Measurements from the supplement of paper PMC3334620.
Over roughly 33,000 sequences, “E-score (-0.5 to 0.5)” has its median near -8e-05; the highest 2% begin near 0.23. The list shows a part of the results.

Each sequence was assayed against T1, Nrg2 (UniProt P38082) (assay: PBM E-score (8-mer binding enrichment) (E-score (-0.5 to 0.5)); higher = stronger / more preferred TF binding). Conditions: protein concentration: 100 nM; construct: GST-full length.
T1 sequence: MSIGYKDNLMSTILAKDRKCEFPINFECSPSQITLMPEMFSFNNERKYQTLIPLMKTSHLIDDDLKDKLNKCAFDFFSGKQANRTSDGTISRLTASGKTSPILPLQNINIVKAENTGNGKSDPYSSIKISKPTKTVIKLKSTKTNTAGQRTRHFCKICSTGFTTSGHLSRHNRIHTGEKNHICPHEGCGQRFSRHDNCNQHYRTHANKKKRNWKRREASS
In short: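 E-scores (a modified Wilcoxon-Mann-Whitney statistic) were assigned by the Universal PBM Analysis Suite to every ungapped eight-base word pooled with its reverse complement. The input came from universal all-10-mer Agilent arrays made double-stranded by primer extension and probed with GST-tagged yeast transcription factors at about 100-200 nM. Fluorescent anti-GST detected bound protein, and masliner normalised the scans.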
For CTAAATCC, the “PBM E-score” value was 0.0499.
In the case of CGGGATTC, the “PBM E-score” value was 0.18.
For CTTTGGTC, the “PBM E-score” value was 0.0813.
In the case of AACGCTAA, the “PBM E-score” value was -0.221.
CACGTCGA was tested, and the “PBM E-score” value was -0.0111.
In the case of AGCACTAA, the “PBM E-score” value was -0.0425.
With AGGTAGGC the “PBM E-score” value was -0.125.
With CATTGAGG the “PBM E-score” value was -0.0408.
For CCTTGGTA, the “PBM E-score” value was -0.022.
AGTTACAG was tested, and the “PBM E-score” value was 0.102.
With ACACGGTC the “PBM E-score” value was -0.125.
CACGATAG was tested, and the “PBM E-score” value was 0.0957.
With CCAAATGA the “PBM E-score” value was 0.122.
With GATCATTA the “PBM E-score” value was 0.153.
With AGCGGAAT the “PBM E-score” value was -0.00516.
In the case of CGAACGCC, the “PBM E-score” value was -0.0302.
For GCAGTCAA, the “PBM E-score” value was -0.244.
With AGCTGGGC the “PBM E-score” value was -0.0291.
With TCCACACA the “PBM E-score” value was 0.0797.
For AGATCGAC, the “PBM E-score” value was -0.00905.
In the case of GGCATTGA, the “PBM E-score” value was 0.0124.
With AAATTCGA the “PBM E-score” value was -0.0488.
With GCCAAGGC the “PBM E-score” value was -0.015.
In the case of CAGTGTCG, the “PBM E-score” value was -0.216.
With CTAAAAAG the “PBM E-score” value was -0.0621.
ATGCACTG was tested, and the “PBM E-score” value was 0.0137.
For AATATTTA, the “PBM E-score” value was 0.14.
In the case of TAGCAATA, the “PBM E-score” value was 0.0853.
For ACCAAAGA, the “PBM E-score” value was 0.0501.
ATTGGGAG was tested, and the “PBM E-score” value was -0.0508.
In the case of CACTACTC, the “PBM E-score” value was 0.0575.
In the case of AGAACAAT, the “PBM E-score” value was 0.166.
In the case of CGTATAGC, the “PBM E-score” value was 0.038.
For GTCGTAAA, the “PBM E-score” value was -0.0631.
With AAAACTCC the “PBM E-score” value was -0.165.
AAAGTGTG was tested, and the “PBM E-score” value was 0.0476.
With CCAACACC the “PBM E-score” value was -0.126.
For CCGGACAC, the “PBM E-score” value was -0.0991.
ATCTTGCA was tested, and the “PBM E-score” value was 0.256.
For GAAGCACC, the “PBM E-score” value was -0.124.
With GACTACTC the “PBM E-score” value was 0.0159.
With CCGTGCAG the “PBM E-score” value was 0.019.
AGGCGTTA was tested, and the “PBM E-score” value was -0.192.
In the case of CAATCCAA, the “PBM E-score” value was 0.0505.
For ATCGGATC, the “PBM E-score” value was 0.0451.
For AGTATAAT, the “PBM E-score” value was 0.257.
CTCGCCGA was tested, and the “PBM E-score” value was 0.0308.
ACGTGTAC was tested, and the “PBM E-score” value was -0.0564.
In the case of TACTACCA, the “PBM E-score” value was -0.0799.
With CAAAGATA the “PBM E-score” value was 0.187.
In the case of CGTCCAGA, the “PBM E-score” value was -0.182.
With GCATATCC the “PBM E-score” value was 0.175.
For GAACGCGA, the “PBM E-score” value was 0.135.
In the case of CGAATTCG, the “PBM E-score” value was -0.0163.
In the case of CGCGCACC, the “PBM E-score” value was 0.14.
With ATATGTAC the “PBM E-score” value was 0.153.
With AGAGCAGA the “PBM E-score” value was -0.0249.
In the case of ACCGTATA, the “PBM E-score” value was -0.105.
In the case of CAGAGGCA, the “PBM E-score” value was -0.00504.
For AAGCCGCT, the “PBM E-score” value was -0.05.
For ATAGAAAA, the “PBM E-score” value was 0.0654.
With AGACGGAT the “PBM E-score” value was 0.0985.
AGATACTG was tested, and the “PBM E-score” value was 0.242.
ACTCTCAC was tested, and the “PBM E-score” value was 0.0525.
For AATTGCGT, the “PBM E-score” value was 0.173.
In the case of CATAATAA, the “PBM E-score” value was 0.0578.
In the case of AATATTGC, the “PBM E-score” value was 0.149.
CCTGAATA was tested, and the “PBM E-score” value was 0.181.
With CACACAGC the “PBM E-score” value was 0.128.
In the case of AGCGCTCA, the “PBM E-score” value was 0.0198.
In the case of CCTTGTCA, the “PBM E-score” value was -0.0381.
In the case of AAATGTGA, the “PBM E-score” value was 0.0196.
AATGACGA was tested, and the “PBM E-score” value was 0.0909.
AGGTAGAG was tested, and the “PBM E-score” value was -0.207.
CGGCAGTA was tested, and the “PBM E-score” value was -0.0249.
For ACAGCGAC, the “PBM E-score” value was -0.133.
In the case of ATTCCCGG, the “PBM E-score” value was 0.101.
CCCGGTCC was tested, and the “PBM E-score” value was -0.254.
With CACGTGGG the “PBM E-score” value was -0.138.
AGAAAATA was tested, and the “PBM E-score” value was 0.0846.
In the case of TTAAGAAA, the “PBM E-score” value was -0.108.
With AAAAATAA the “PBM E-score” value was 0.132.
GCTCAAGC was tested, and the “PBM E-score” value was -0.0931.
With GGCCCATA the “PBM E-score” value was 0.0977.
For ACCGCGAC, the “PBM E-score” value was 0.0348.
With CCGTAGAA the “PBM E-score” value was -0.225.
GGACGCTA was tested, and the “PBM E-score” value was -0.163.
AAGCTTGC was tested, and the “PBM E-score” value was -0.12.
With AGTCACGC the “PBM E-score” value was -0.17.
For CCGATCGA, the “PBM E-score” value was -0.164.
For ATACGGAA, the “PBM E-score” value was 0.136.
With CTAGATAG the “PBM E-score” value was -0.0285.
ACCTGCCT was tested, and the “PBM E-score” value was -0.0389.
For GATAGAAA, the “PBM E-score” value was 0.0506.
With TCCCAGGA the “PBM E-score” value was -0.18.
For GAATTCCA, the “PBM E-score” value was 0.188.
For AAATCTTC, the “PBM E-score” value was -0.042.
AGAGAACC was tested, and the “PBM E-score” value was -0.0525.
With CCTAAGAG the “PBM E-score” value was 0.127.
For ACTTGGGC, the “PBM E-score” value was -0.083.
For TGGCCCCA, the “PBM E-score” value was -0.0392.
With AGAGAACA the “PBM E-score” value was -0.0332.
For ACATAGCC, the “PBM E-score” value was 0.12.
With CCCGCTGA the “PBM E-score” value was -0.056.
With ATTCCCGC the “PBM E-score” value was 0.194.
With CCCTATTC the “PBM E-score” value was 0.0448.
In the case of AGGAGCCG, the “PBM E-score” value was -0.142.
For AGGCAGAG, the “PBM E-score” value was -0.152.
For ATCTTTTC, the “PBM E-score” value was 0.0439.
TGTGGAAA was tested, and the “PBM E-score” value was 0.148.
GGTGGTCA was tested, and the “PBM E-score” value was 0.0257.
ACTCCACC was tested, and the “PBM E-score” value was -0.0649.
AACTATTC was tested, and the “PBM E-score” value was -0.00543.
With AGTTATTG the “PBM E-score” value was 0.174.
CACCTCGC was tested, and the “PBM E-score” value was -0.0297.
CAAGCGTA was tested, and the “PBM E-score” value was -0.121.
With CCCTGCAA the “PBM E-score” value was 0.162.
With CTTAACAC the “PBM E-score” value was 0.0347.
For AAGCCCTA, the “PBM E-score” value was -0.167.
With ACGGGAGT the “PBM E-score” value was 0.0417.
In the case of CCCATAGG, the “PBM E-score” value was 0.0142.
With CACATTCC the “PBM E-score” value was -0.0582.
In the case of GTATCAAA, the “PBM E-score” value was 0.148.
For CCTTGGCA, the “PBM E-score” value was -0.0654.
ACGGTTGC was tested, and the “PBM E-score” value was -0.0353.
ACTTAAAA was tested, and the “PBM E-score” value was -0.122.
In the case of ATGCGCGC, the “PBM E-score” value was 0.23.
In the case of GTTATCGA, the “PBM E-score” value was 0.0283.
With CGGCTATC the “PBM E-score” value was -0.0729.
With CTGGCCAA the “PBM E-score” value was 0.0814.
In the case of AAGGGGCC, the “PBM E-score” value was 0.0155.
With GTTACCTA the “PBM E-score” value was 0.0439.
With CAGGCTAA the “PBM E-score” value was -0.0857.
In the case of CGAAAACA, the “PBM E-score” value was 0.0723.
In the case of AGATCCGA, the “PBM E-score” value was 0.00014.
With CGAGAGCA the “PBM E-score” value was 0.0136.
In the case of ATTTCCGC, the “PBM E-score” value was 0.16.
For CTTGAAAA, the “PBM E-score” value was -0.0288.
AACCGGTC was tested, and the “PBM E-score” value was -0.0894.
In the case of AGACCGGA, the “PBM E-score” value was -0.0154.
For ATCCCCTA, the “PBM E-score” value was 0.0411.
With AATTTCCC the “PBM E-score” value was 0.205.
AGCACAAG was tested, and the “PBM E-score” value was -0.217.
With ACGCTCAA the “PBM E-score” value was 0.0169.
With CGCGCCCG the “PBM E-score” value was -0.175.
With CGCCGCAC the “PBM E-score” value was -0.00336.
With CGACTGTC the “PBM E-score” value was -0.0486.
With AAGCCTGT the “PBM E-score” value was 0.131.
With CGCAAATC the “PBM E-score” value was -0.0654.
For CTGCCACA, the “PBM E-score” value was -0.117.
GCGAGCAA was tested, and the “PBM E-score” value was 0.0895.
In the case of CTCTAAAC, the “PBM E-score” value was -0.0249.
AACTCTAA was tested, and the “PBM E-score” value was 0.023.
GGATGATA was tested, and the “PBM E-score” value was 0.0223.
For CTGGCCAG, the “PBM E-score” value was 0.0704.
With GCTCTCTA the “PBM E-score” value was -0.0388.
ATGCGATG was tested, and the “PBM E-score” value was 0.0457.
For GCGTAAAA, the “PBM E-score” value was 0.0801.
In the case of ACGAGATG, the “PBM E-score” value was 0.0596.
CGTTGAAA was tested, and the “PBM E-score” value was -0.0581.
For CTTTTAGC, the “PBM E-score” value was -0.0898.
For TCACCAAA, the “PBM E-score” value was 0.131.
With CCACTGAA the “PBM E-score” value was 0.0366.
With AGCCGACC the “PBM E-score” value was -0.26.
With CATTAGCC the “PBM E-score” value was -0.0571.
AGAGGGAA was tested, and the “PBM E-score” value was -0.283.
In the case of CCGCAACC, the “PBM E-score” value was 0.0364.
For AATCGTTG, the “PBM E-score” value was 0.102.
For CGGCAGAG, the “PBM E-score” value was -0.118.
In the case of AAGTCATG, the “PBM E-score” value was 0.053.
In the case of ACACATTC, the “PBM E-score” value was -0.0249.
For AAATGAGA, the “PBM E-score” value was 0.00107.
